Among the data in paper PMC8419046 are binding values, retold here.

Amino acid sequences for entries named in this document (tags omitted).
UniProt P30051: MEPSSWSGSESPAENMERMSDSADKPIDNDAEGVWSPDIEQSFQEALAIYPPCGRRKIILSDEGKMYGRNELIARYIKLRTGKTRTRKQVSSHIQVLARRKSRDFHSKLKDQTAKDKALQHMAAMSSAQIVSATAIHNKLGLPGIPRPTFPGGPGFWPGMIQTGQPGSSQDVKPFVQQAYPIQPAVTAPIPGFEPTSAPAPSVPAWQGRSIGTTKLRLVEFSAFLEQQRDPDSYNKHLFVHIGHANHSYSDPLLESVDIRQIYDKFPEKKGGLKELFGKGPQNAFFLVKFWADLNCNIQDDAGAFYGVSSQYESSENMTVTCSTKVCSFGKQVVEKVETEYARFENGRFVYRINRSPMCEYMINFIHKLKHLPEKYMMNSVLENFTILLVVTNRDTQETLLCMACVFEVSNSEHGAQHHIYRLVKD
UniProt Q9EPK5: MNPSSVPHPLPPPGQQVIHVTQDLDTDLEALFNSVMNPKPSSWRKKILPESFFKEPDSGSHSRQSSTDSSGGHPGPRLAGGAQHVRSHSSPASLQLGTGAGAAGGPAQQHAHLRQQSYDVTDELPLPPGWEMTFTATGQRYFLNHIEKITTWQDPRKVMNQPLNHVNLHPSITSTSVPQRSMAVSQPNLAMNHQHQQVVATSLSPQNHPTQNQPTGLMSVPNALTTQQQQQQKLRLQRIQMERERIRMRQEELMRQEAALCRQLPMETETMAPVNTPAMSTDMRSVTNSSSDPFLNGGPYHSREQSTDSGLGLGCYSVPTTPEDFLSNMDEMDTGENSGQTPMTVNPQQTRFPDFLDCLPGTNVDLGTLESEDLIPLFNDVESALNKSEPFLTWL
UniProt P46938: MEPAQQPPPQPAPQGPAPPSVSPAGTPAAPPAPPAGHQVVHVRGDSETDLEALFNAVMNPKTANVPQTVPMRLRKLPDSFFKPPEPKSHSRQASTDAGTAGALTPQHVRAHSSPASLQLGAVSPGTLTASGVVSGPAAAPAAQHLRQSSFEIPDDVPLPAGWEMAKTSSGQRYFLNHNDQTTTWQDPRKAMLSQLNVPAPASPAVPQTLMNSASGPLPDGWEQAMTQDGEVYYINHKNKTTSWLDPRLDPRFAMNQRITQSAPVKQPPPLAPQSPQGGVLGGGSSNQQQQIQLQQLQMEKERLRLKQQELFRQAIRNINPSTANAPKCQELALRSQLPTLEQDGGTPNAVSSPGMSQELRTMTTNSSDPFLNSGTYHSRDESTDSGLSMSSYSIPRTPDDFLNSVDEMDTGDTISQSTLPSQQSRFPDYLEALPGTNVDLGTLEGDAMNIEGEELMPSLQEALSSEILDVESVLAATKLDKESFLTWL

The test concerns the target TEA-domain family member1 (TEAD1) (mouse (endogenous in left ventricle tissue)) (UniProt P30051). Put plainly: co-IP; nuclear protein fraction (1 ug/uL) of LV tissue of nTG and Mst1-TG mice; antibody against YAP1 or TEAD1 or IgG, overnight at 4 °C, protein A/G PLUS-agarose beads; immunoblotting.

Results are given in words; binding and its absence hold for the method and conditions named. Binding seen in cells or lysates may run through a third protein. Some results given as binding are weak or reduced against the parent protein; the word gives no strength.

Turning to “transcriptional co-activator with PDZ-binding motif (TAZ, Wwtr1) (from UniProt Q9EPK5 1-395)”, the binding entry was “binds”.

As to “yes-associated protein (YAP) (from UniProt P46938 1-488)”, the binding entry was “binds”.
